PubChem BioAssay AID1259308, NCATS, 2017
Assay: 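Candidate targets for better recombinant protein yield in mammalian cells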 (primary screen). System: human HEK293 embryonic kidney cells stably expressing firefly luciferase (HEK-CMV-Luc2-Hygro). Reagents: single siRNA against human genes, 0.8 pmol siRNA per well. Time to read-out: 72 h. Detection: 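Luciferase light (ONE-Glo) measured on one replicate plate set and viability (CellTiter-Glo) on the other, scaled to a negative control siRNA, with robust z-scores and luciferase per cell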. Direction: total luciferase, z-score: higher = more reporter protein produced. Call rule: 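Active when the median/MAD z-score for overall luciferase is greater than 3; a gene was taken forward for validation with new siRNAs if at least two of its three siRNAs passed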. Calls: active = raised luciferase; inactive = no rise.
This is one part, drawn at random, of about 59,000 reagents. Over the whole deposit, about 1,510 (2.6%) got an active call. 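Calls use total luciferase alone and ignore viability, so some active siRNAs may act by altering cell number.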 Reagents against one gene are numbered here. Further read-outs or replicates are left out here.

total luciferase, z-score, by target and reagent
CASP7 (caspase 7): #1 -0.391 inactive; #2 -1.11 inactive; #3 0.677 inactive
PRRC2C (proline rich coiled-coil 2C): #1 1.14 inactive; #2 0.229 inactive; #3 -0.382 inactive
MCTP1 (multiple C2 and transmembrane domain containing 1): #1 -0.277 inactive; #2 -0.747 inactive; #3 -0.328 inactive
OR4S1 (olfactory receptor family 4 subfamily S member 1): #1 0.0533 inactive; #2 0.242 inactive; #3 0.797 inactive
AGER (advanced glycosylation end-product specific receptor): #1 -1.1 inactive; #2 0.995 inactive; #3 -1.42 inactive

In a second layout: 5 of the entries above
PRRC2C (proline rich coiled-coil 2C) #2
- total luciferase, z-score: 0.229
- Outcome: inactive

PRRC2C (proline rich coiled-coil 2C) #3
- total luciferase, z-score: -0.382
- Outcome: inactive

MCTP1 (multiple C2 and transmembrane domain containing 1) #1
- total luciferase, z-score: -0.277
- Outcome: inactive

MCTP1 (multiple C2 and transmembrane domain containing 1) #2
- total luciferase, z-score: -0.747
- Outcome: inactive

MCTP1 (multiple C2 and transmembrane domain containing 1) #3
- total luciferase, z-score: -0.328
- Outcome: inactive

Continued:
total luciferase, z-score, by target and reagent
LYPD8 (LY6/PLAUR domain containing 8): #1 1.22 inactive; #2 -0.0236 inactive; #3 -1.44 inactive
GPR37 (G protein-coupled receptor 37): #1 0.176 inactive; #2 0.414 inactive; #3 0.254 inactive
RHOU (ras homolog family member U): #1 -2.01 inactive; #2 0.395 inactive; #3 0.654 inactive
PRMT1 (protein arginine methyltransferase 1): #1 -0.849 inactive; #2 -0.706 inactive; #3 0.698 inactive
CFC1 (cryptic, EGF-CFC family member 1): #1 -0.988 inactive; #2 0.222 inactive; #3 -1.74 inactive
CIBAR1P2 (CIBAR1 pseudogene 2): #1 -3.13 inactive; #2 -1.1 inactive; #3 1.31 inactive
MYO1F (myosin IF): #1 -0.113 inactive; #2 1.22 inactive; #3 -0.735 inactive
KCNJ15 (potassium inwardly rectifying channel subfamily J member 15): #1 -0.0765 inactive; #2 -1.29 inactive; #3 -1.63 inactive
